Taken from: PubChem BioAssay AID686943 (Drosophila RNAi Screening Center, 2013)
Assay: 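Search across the genome for regulators of signalling from receptor tyrosine kinase to ERK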 (primary screen). Cell system: Drosophila S2R+ haemocyte-like cells expressing YFP-tagged ERK (Rolled). Reagent: long dsRNA against Drosophila genes. Challenge: insulin stimulation versus unstimulated cells; dose and duration not given. Read-out: 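Antibody staining for doubly phosphorylated ERK divided by ERK-YFP signal, as plate z-scores, in insulin-treated and untreated cells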. Scale: replicate 1, z-score of dpERK with insulin: higher = more active ERK per ERK-YFP after insulin.
The deposit covers about 23,000 reagents; below is an unselected part of those that have a named target and a result. 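Extra replicates exist only for a retested subset of genes; insulin dose and duration not given; both raised and lowered dpERK matter.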 Not all columns of the deposit are shown. No sequences are given here. The record does not give: the amount of reagent, the time to read-out.

Depletion of CG3071 [DRSC18526] resulted in: replicate 1, z-score of dpERK with insulin -0.51.
Against CG3226 [DRSC18296] the deposit lists replicate 1, z-score of dpERK with insulin 0.99.
Knock-down of twi (twist) [DRSC04720] gave: replicate 1, z-score of dpERK with insulin 0.11.
After knock-down of CG5273 [DRSC18612], the record shows replicate 1, z-score of dpERK with insulin 1.42.
For CG32812 [DRSC18478], the values are replicate 1, z-score of dpERK with insulin -0.26.
Against Odc2 (Ornithine decarboxylase 2) [DRSC07483], the values are replicate 1, z-score of dpERK with insulin 0.21.

2 entries already listed, ordered by “replicate 1, z-score of dpERK with insulin”, descending:
CG3226 [DRSC18296] — replicate 1, z-score of dpERK with insulin: 0.99
CG3071 [DRSC18526] — replicate 1, z-score of dpERK with insulin: -0.51

The list goes on:
Against cnc (cap-n-collar) [DRSC14676], the values are replicate 1, z-score of dpERK with insulin -1.57.
Depletion of cnc (cap-n-collar) [DRSC15289] resulted in: replicate 1, z-score of dpERK with insulin -1.41.
cnc (cap-n-collar) [DRSC15600] gave replicate 1, z-score of dpERK with insulin -1.14.
For cnc (cap-n-collar) [DRSC15601], the entry reads replicate 1, z-score of dpERK with insulin -0.28.
CG13054 [DRSC09935] scored replicate 1, z-score of dpERK with insulin -1.16.
For CG13784 [DRSC00974] the deposit lists replicate 1, z-score of dpERK with insulin 0.56.
Knock-down of CG13784 [DRSC02287] resulted in: replicate 1, z-score of dpERK with insulin -3.56.
